PubChem BioAssay AID1259254 – NCATS – 2017

Test: 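Finding genes that stop cells copying their DNA twice in one cycle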 (primary screen)
Cells: human HCT116 colorectal cancer cells
Knock-down reagent: single siRNA against human genes
Time to read-out: 3 days
Read-out: 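Imaged Hoechst DNA stain sorts each cell into a cycle phase by DNA amount; per plate, G2 fraction set to 0% for non-targeting and 100% for GMNN siRNA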
Reading the numbers: G2 robust z-score: higher = more G2 cells, more excess DNA replication
Hit rule: 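An siRNA counts as active if its G2 robust z-score lies at least 5 MADs above the screen median; here such calls match roughly 38% of GMNN control or more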
The deposit covers about 59,000 reagents; this is a random part of them. Of all reagents, about 1,550 (2.6%) were called active. 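G2 share is only a proxy for re-replication; each gene was hit by three separate siRNAs, and active genes were retested.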 The numbers tell different reagents against one gene apart. Further read-outs or replicates are left out here. Not given: the amount of reagent.

G2 robust z-score, by gene symbol and reagent
ZNF211: #1 -0.582 inactive; #2 0.249 inactive; #3 -0.551 inactive
SLC17A5: #1 -0.724 inactive; #2 -1.03 inactive; #3 -0.611 inactive
VPS54: #1 0.925 inactive; #2 0.339 inactive; #3 0.423 inactive
ZDHHC23: #1 -1.07 inactive; #2 -0.751 inactive; #3 2.05 inactive
C19orf38: #1 -0.631 inactive; #2 -0.0641 inactive; #3 -0.0489 inactive
KLHDC7B: #1 -0.469 inactive; #2 -0.204 inactive; #3 -0.651 inactive
TH: #1 -0.312 inactive; #2 2.95 inactive; #3 -0.6 inactive
KRT33A: #1 0.0524 inactive; #2 0.812 inactive; #3 4.09 inactive
ASPG: #1 1.47 inactive; #2 -0.669 inactive; #3 0.295 inactive
CATSPERD: #1 0.348 inactive; #2 0.861 inactive; #3 1.13 inactive
RNF216: #1 4.14 inactive; #2 -0.753 inactive; #3 1.01 inactive
GRIN3B: #1 -0.917 inactive; #2 2.82 inactive; #3 0.337 inactive
ARSH: #1 1.39 inactive; #2 -1.19 inactive; #3 -0.0843 inactive
ACAT2: #1 -0.116 inactive; #2 2.75 inactive; #3 5.46 active
PMAIP1: #1 -0.39 inactive; #2 2.99 inactive; #3 1.4 inactive

Hits, of those listed so far:
G2 robust z-score, by gene symbol and reagent
ACAT2: #3 5.46 active

More records follow.
G2 robust z-score, by gene symbol and reagent
HMGCL: #1 2.78 inactive; #2 0.302 inactive; #3 -0.929 inactive
SLC1A5: #1 -1.37 inactive; #2 0.716 inactive; #3 0.0465 inactive
TUSC2: #1 2.86 inactive; #2 1.41 inactive; #3 -0.177 inactive
NKIRAS2: #1 -0.849 inactive; #2 -0.934 inactive; #3 0.695 inactive
COMMD10: #1 -0.949 inactive; #2 0.911 inactive; #3 -0.892 inactive
PPP2R5E: #1 -0.728 inactive; #2 -0.973 inactive; #3 0.499 inactive
SPATA1: #1 -0.912 inactive; #2 2.09 inactive; #3 0.31 inactive
CCAR2: #1 0.0763 inactive; #2 -0.593 inactive; #3 -0.318 inactive
